Measurements reported in publication PMC6994103 (PLoS Neglected Tropical Diseases, 2020).

Columns and labels:
VERO cells = assay: Toxicity assay in VERO cells (gentian violet staining); type: cell-based, African green monkey; settings: IC50 in VERO cells / IC50 in trypomastigotes (Y strain)
Description: VERO cells (African green monkey Kidney, ATCC CCL-81) were cultured in MEM medium supplemented with 10% heat inactivated FCS, 0.15% (w/v) NaHCO3, 100 U/mL penicillin and 100 U/mL streptomycin at 37°C in 5% CO2.
The toxicity of the compounds was determined in VERO cells by the gentian violet staining assay. Briefly, the cells (1 x10^4 cells/well) were incubated in 96-well plates with the indicated compound or dimethyl sulfoxide (DMSO) as negative control and maintained at 37° C for 24 h. Then the cells were fixed for 15 min, and stained with 0.5% gentian violet. The absorbance was measured at 570 nm. The selectivity index (SI) was calculated for each CV analogue as the ratio between the IC50 obtained in mammalian cells and the IC50 in trypomastigotes. For the combined treatment, the results were presented as percentage of untreated cells.

[1] = system: T. cruzi trypomastigotes Y strain; assay: Trypanocidal activity in trypomastigotes, Y strain; type: cell-based; settings: Trypanosoma cruzi, 24 h, read-out: trypanocidal IC50, trypomastigotes
Description: VERO cells (5 x10^4 per well) were infected with trypomastigotes (2.5 ×10^5 per well) for 4 h. After this period, the infected cells were washed twice with phosphate-buffered saline (PBS), the MEM medium was replaced, and the cells were kept in culture at 37°C, 5% CO2. In order to obtain intracellular amastigotes, the cells were lysed 4 days after infection using a cell scraper, collected, washed twice with PBS (or MEM) and counted using a hemocytometer. Trypomastigotes were obtained from infected VERO cells as previously described.
Epimastigotes of T. cruzi were cultured as described above, in 24-wells plate at a start density of 0.5 x10^7 cells/mL in BHT medium. Parasites´ growth was evaluated at different concentrations of BZL, CV and CV structural analogues, and parasite proliferation was determined after 48 h. […] Growth was determined by counting in a Neubauer chamber and viability assays by using “Cell Titer 96 Aqueous One Solution Cell Proliferation Assay (MTS)” (Promega, Madison, WI, USA) according to the manufacturer’s instructions. Amastigotes were fixed with methanol, stained and mounted with Vectashield with DAPI (Vector Laboratories, Burlingame, CA, USA), and then the non-lysed cells were counted by using fluorescence microscopy.

Compound	Selectivity Index (VERO cells)	IC50 [1] [µM]
CN1CCC(=C2c3ccccc3C=Cc3ccccc32)CC1 [Cyproheptadine]	9.1	–
Cc1cc2c(s1)Nc1ccccc1N=C2N1CCN(C)CC1 [Olanzapine]	–	> 50
